PubChem BioAssay AID1259424 – University of Nebraska Medical Center – 2018
Test: 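Rank knockdowns across the genome by resemblance to the KSR1 depletion profile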 (primary screen). Cells: human HCT116 colon cancer cells. Reagent: siRNA pool against human genes, 50 nM. Detection: 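Log2 levels of six mRNAs (branched-DNA multiplex), adjusted by two reference genes and the non-targeting median, then scored against the average KSR1 knockdown pattern as Pearson r and euclidean distance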. Direction: mean correlation with KSR1 profile and KSR1 correlation: higher = expression change more like KSR1 knockdown; mean distance from KSR1 profile: higher = expression change less like KSR1 knockdown.
Shown is an unselected part of about 14,000 reagents tested. 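Higher correlation or smaller distance means closer resemblance to KSR1 loss; control wells, including KSR1 knockdowns, recur on many plates.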 Not stated in the record: the time to read-out.

gene symbol | mean correlation with KSR1 profile | mean distance from KSR1 profile | KSR1 correlation, replicate 1 | KSR1 correlation, replicate 2 | KSR1 correlation, replicate 3
AUP1 (AUP1 lipid droplet regulating VLDL assembly factor) | 0.103 | 2.18 | 0.175 | 0.0549 | -0.248
IVD (isovaleryl-CoA dehydrogenase) | -0.118 | 1.31 | -0.328 | 0.12 | 0.0281
H3C12 (H3 clustered histone 12) | -0.181 | 2.62 | -0.156 | -0.155 | -0.271
MIA2 (MIA SH3 domain ER export factor 2) | -0.626 | 3.29 | -0.58 | -0.675 | -0.616
CFHR5 (complement factor H related 5) | 0.173 | 3.15 | -0.0869 | 0.0413 | 0.338
PLBD1 (phospholipase B domain containing 1) | 0.0154 | 2.45 | 0.0303 | 0.169 | -0.0361
PELI1 (pellino E3 ubiquitin protein ligase 1) | -0.235 | 3.28 | -0.568 | -0.05 | -0.0993
IGFBP2 (insulin like growth factor binding protein 2) | -0.151 | 1.69 | 0.228 | 0.196 | -0.601
NAT8 (N-acetyltransferase 8 (putative)) | 0.611 | 1.77 | 0.567 | 0.602 | 0.599
TAF5 (TATA-box binding protein associated factor 5) | -0.211 | 2.67 | -0.338 | -0.0397 | -0.00868
CDC26 (cell division cycle 26) | -0.348 | 2.85 | -0.435 | -0.244 | -0.459
TNN (tenascin N) | -0.122 | 1.83 | -0.242 | 0.114 | 0.0414
MLLT6 (MLLT6, PHD finger containing) | 0.76 | 0.995 | 0.69 | 0.797 | 0.432
CCNJ (cyclin J) | 0.00172 | 1.48 | -0.208 | -0.384 | 0.203
PRKD3 (protein kinase D3) | -0.134 | 3.83 | 0.142 | -0.135 | -0.336
ATG7 (autophagy related 7) | -0.0283 | 2.14 | 0.0516 | -0.178 | -0.0835
GKN1 (gastrokine 1) | -0.577 | 2.07 | -0.641 | -0.619 | -0.424
KIF2A (kinesin family member 2A) | 0.11 | 3.15 | -0.00206 | 0.162 | 0.145
HOXC13 (homeobox C13) | -0.313 | 1.73 | -0.368 | -0.166 | -0.0294
DRP2 (dystrophin related protein 2) | 0.788 | 1.28 | 0.829 | 0.718 | 0.604
TNFRSF1A (TNF receptor superfamily member 1A) | -0.0289 | 3.01 | -0.0561 | 0.143 | -0.217
RELCH | 0.329 | 3.26 | 0.337 | 0.0756 | 0.472
SOHLH2 | -0.192 | 2.73 | -0.173 | -0.304 | -0.287
SERPINB9 (serpin family B member 9) | 0.387 | 1.61 | 0.233 | 0.562 | 0.492
DAZL (deleted in azoospermia like) | -0.111 | 2.55 | -0.202 | -0.0997 | -0.248
COL25A1 (collagen type XXV alpha 1 chain) | 0.428 | 2.15 | 0.633 | -0.185 | 0.419
METTL22 (methyltransferase 22, Kin17 lysine) | 0.25 | 1.54 | 0.236 | -0.108 | -0.0505
PCDHGB3 (protocadherin gamma subfamily B, 3) | -0.844 | 3.04 | -0.704 | -0.865 | -0.571

Reprinted from the listing for reference:
gene symbol | mean correlation with KSR1 profile | mean distance from KSR1 profile | KSR1 correlation, replicate 1 | KSR1 correlation, replicate 2 | KSR1 correlation, replicate 3
GKN1 (gastrokine 1) | -0.577 | 2.07 | -0.641 | -0.619 | -0.424
KIF2A (kinesin family member 2A) | 0.11 | 3.15 | -0.00206 | 0.162 | 0.145
HOXC13 (homeobox C13) | -0.313 | 1.73 | -0.368 | -0.166 | -0.0294
DRP2 (dystrophin related protein 2) | 0.788 | 1.28 | 0.829 | 0.718 | 0.604
TNFRSF1A (TNF receptor superfamily member 1A) | -0.0289 | 3.01 | -0.0561 | 0.143 | -0.217

Continued:
gene symbol | mean correlation with KSR1 profile | mean distance from KSR1 profile | KSR1 correlation, replicate 1 | KSR1 correlation, replicate 2 | KSR1 correlation, replicate 3
COQ9 (coenzyme Q9) | -0.103 | 1.89 | -0.0115 | 0.0364 | 0.0298
IFT88 (intraflagellar transport 88) | 0.537 | 1.91 | 0.658 | 0.604 | 0.408
TPM1 (tropomyosin 1) | -0.381 | 2.01 | -0.209 | -0.566 | -0.4
KDELR2 (KDEL endoplasmic reticulum protein retention receptor 2) | -0.348 | 1.35 | 0.155 | 0.109 | -0.678
TDP1 (tyrosyl-DNA phosphodiesterase 1) | -0.482 | 2.98 | -0.385 | -0.63 | -0.525
TNXB (tenascin XB) | 0.437 | 2.97 | 0.461 | 0.348 | 0.493
EFNA4 (ephrin A4) | 0.257 | 2.31 | -0.324 | 0.333 | 0.756
AGPAT4 (1-acylglycerol-3-phosphate O-acyltransferase 4) | 0.176 | 4 | 0.359 | 0.245 | 0.061
CNTF (ciliary neurotrophic factor) | 0.105 | 2.14 | 0.287 | -0.096 | 0.118
NIPBL (NIPBL cohesin loading factor) | 0.0521 | 3.37 | 0.0732 | -0.0682 | 0.0126
RNFT2 (ring finger protein, transmembrane 2) | 0.392 | 2.55 | 0.352 | 0.209 | 0.457
IFT57 (intraflagellar transport 57) | -0.299 | 3.99 | -0.28 | -0.44 | -0.368
PBK (PDZ binding kinase) | 0.0385 | 1.8 | 0.458 | 0.0307 | -0.597
NT5C3A (5'-nucleotidase, cytosolic IIIA) | 0.583 | 2.05 | 0.559 | 0.632 | 0.522
FFAR4 (free fatty acid receptor 4) | 0.193 | 1.66 | -0.0854 | 0.231 | 0.029
ETV6 (ETS variant transcription factor 6) | 0.898 | 2.37 | 0.458 | 0.866 | 0.855
ADCY1 (adenylate cyclase 1) | -0.124 | 2.05 | -0.0947 | -0.194 | -0.337
ICE2 (interactor of little elongation complex ELL subunit 2) | -0.731 | 2.18 | -0.589 | -0.345 | -0.862
TSN (translin) | 0.751 | 1.26 | 0.878 | 0.583 | 0.523
PRPS2 (phosphoribosyl pyrophosphate synthetase 2) | 0.348 | 2.38 | 0.6 | 0.584 | -0.557
KCTD10 (potassium channel tetramerization domain containing 10) | -0.00556 | 3.71 | -0.166 | -0.0327 | 0.105
NES (nestin) | -0.42 | 2.17 | -0.285 | -0.569 | -0.216
ULBP2 (UL16 binding protein 2) | 0.508 | 1.61 | 0.126 | 0.526 | 0.301
CIT (citron rho-interacting serine/threonine kinase) | 0.716 | 1.68 | 0.766 | 0.688 | 0.46
ITPR2 (inositol 1,4,5-trisphosphate receptor type 2) | 0.0386 | 1.43 | -0.264 | -0.0436 | 0.147
SGTA | -0.329 | 2.08 | -0.322 | -0.306 | -0.171
CHRNA1 (cholinergic receptor nicotinic alpha 1 subunit) | 0.132 | 1.99 | 0.201 | -0.0249 | 0.127
YIPF5 (Yip1 domain family member 5) | 0.574 | 2.23 | 0.392 | 0.532 | 0.66
FSD1L (fibronectin type III and SPRY domain containing 1 like) | 0.403 | 1.96 | 0.0225 | 0.588 | 0.573
NEFH (neurofilament heavy chain) | -0.0166 | 2.31 | 0.04 | -0.00283 | 0.0412
CYP4F2 (cytochrome P450 family 4 subfamily F member 2) | 0.316 | 2.42 | -0.228 | 0.66 | 0.321
ZNF627 (zinc finger protein 627) | -0.0982 | 2.82 | 0.0513 | -0.0124 | -0.0413
QRICH2 (glutamine rich 2) | 0.77 | 2.12 | 0.692 | 0.704 | 0.793
BANK1 (B cell scaffold protein with ankyrin repeats 1) | -0.227 | 3.33 | -0.0927 | -0.265 | -0.193
CEP72 (centrosomal protein 72) | 0.109 | 3.68 | 0.243 | -0.0864 | 0.13
